Among the data in patent US11390543B2, “Sterilization method” (NEWSOUTH INNOVATIONS PTY LIMITED, priority 2017, dated 2022) are Zeta potential values values, retold here.

In the data set the test system is MS2 bacteriophage (ATCC 15597-B1). In words: Zeta potential of MS2 viruses in 0.17 M NaCl solution with different gas bubbles. It is filed as physicochemical. The conditions noted are these: virus 10^8 per ml, gases at 200° C. (combustion gas 60° C.).
Take `O=C=O` [Carbon dioxide]: the Zeta potential values is given as −6.2.

Consider `N#N` [Nitrogen], for which the Zeta potential values was −10.8.

`O=O` [Oxygen] had a Zeta potential values of −12.6.

Compound `[Ar]` [Argon] registered a Zeta potential values of −12.2.
